Taken from: PubChem BioAssay AID504793 (Drosophila RNAi Screening Center, 2011)

- Screen: 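Genes required for cells to halt at G2/M after double-strand DNA breaks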 (primary screen)
- Cell system: Drosophila S2R+ cells
- Reagents: long dsRNA against Drosophila genes, about 0.25 µg dsRNA per well
- Timing: 4 days of dsRNA, then 4 hours of drug before read-out
- Treatment: doxorubicin 0.5 µM for 4 hours to cause double-strand breaks, in cells also given a low, harmless dose of dsRNA against nbs to sensitise the assay
- Measured: 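Mitotic index as the number of phospho-histone H3-positive cells in each well following doxorubicin, given as raw counts without normalisation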
- Scale: mitotic cells: higher = more cells in mitosis, weaker G2 arrest
- Rule for the call: 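a call needs confirmation in secondary tests, with other dsRNAs and a check of mitotic timing without damage, not just a high primary count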
- Calls: active = confirmed in follow-up tests; inactive = not confirmed
The screen tested about 23,000 reagents; shown is a random part of those with a known target gene and a result. Over the whole deposit, 62 (0.27%) got an active call. 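Calls come from follow-up tests whose scores are not deposited, so confirmed genes may have low counts here; counts are not normalised per plate.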 Raw values are not corrected between plates. Names joined by + are all predicted targets of the reagent. Reagent sequences are not shown.

no.	gene	DRSC id	mitotic cells, replicate 1	mitotic cells, replicate 2	activity call
1	bdg	DRSC07136	12		inactive
2	mre11	DRSC03570	9		inactive
3	mre11	DRSC22628	7		inactive
4	mre11	DRSC26311	5		inactive
5	CG15580	DRSC12266	3		inactive
6	CG15580	DRSC24180	7		inactive
7	CG31659	DRSC00760	2		inactive
8	JYalpha	DRSC17224	13		inactive
9	CG12420	DRSC14514	9		inactive
10	CG15035	DRSC17967	8		inactive
11	CG5854	DRSC15894	12		inactive
12	CG5854	DRSC28599	3		inactive
13	Bx	DRSC23048	6		inactive
14	Bx	DRSC28506	7		inactive
15	CG1273	DRSC08291	3		inactive
16	CG32074	DRSC22246	4		inactive
17	CG32074	DRSC26504	8		inactive
18	CG13794	DRSC02298	3		inactive
19	CG13794	DRSC25419	8		inactive
20	CG6674	DRSC10692	5		inactive
21	Yif1	DRSC15817	15		inactive
22	CG13786	DRSC02289	3		inactive
23	CG13786	DRSC27762	4		inactive
24	CG4496	DRSC02753	6		inactive
25	eIF3f2	DRSC04903	4		inactive
26	Ifrd1	DRSC00415	3		inactive
27	Ifrd1	DRSC00566	5		inactive
28	Cyp4ad1	DRSC07369	8		inactive
29	shg	DRSC04714	5		inactive
30	shg	DRSC27751	5		inactive
31	shg	DRSC38948	9		inactive
32	IKKbeta	DRSC16714	9		inactive
33	par-6	DRSC20359	4		inactive
34	par-6	DRSC29863	9		inactive
35	PpD3	DRSC16796	4		inactive
36	CG14223	DRSC19580	8		inactive
37	CG14223	DRSC24816	5		inactive
38	TotF	DRSC02305	8		inactive
39	Pi3K21B	DRSC00771	6		inactive
40	PolZ1	DRSC06800	7		inactive
41	PolZ1	DRSC28574	3		inactive
42	CG12213	DRSC14478	19		inactive
43	CG12213	DRSC22109	13		inactive
44	CG12213	DRSC25474	5		inactive
45	unc79	DRSC15746	8		inactive
46	unc79	DRSC25495	1		inactive
47	CG15109	DRSC06536	3		inactive
48	CG15109	DRSC26040	7		inactive
49	CG14926	DRSC02409	14		inactive
50	CG30195	DRSC04155	1		inactive
51	Fancd2	DRSC15208	14		inactive
52	Fancd2	DRSC22763	28		inactive
53	CG32459	DRSC11852	6		inactive
54	h-cup + Rbp	DRSC14990	5		inactive
55	RnrL	DRSC03413	3		inactive
56	Prim1	DRSC11137	1		inactive
57	CG8170	DRSC07087	3		inactive
58	Clp	DRSC00746	1		inactive
59	Grip	DRSC18395	5		inactive
60	Grip	DRSC26610	5		inactive
61	Cox17	DRSC20145	14		inactive
62	CG5850	DRSC02905	5		inactive
63	CG13203	DRSC06327	6		inactive
64	CG13203	DRSC29202	5		inactive
65	CG10598	DRSC19358	16		inactive
66	CG10598	DRSC25200	7		inactive
67	VhaM9.7-a	DRSC08289	6		inactive
68	VhaM9.7-a	DRSC28340	4		inactive
69	hog	DRSC19057	3		inactive
70	hog	DRSC26603	6		inactive
71	CG33136	DRSC05744	4		inactive
72	CG33136	DRSC29014	6		inactive
73	CG34327	DRSC19517	9		inactive
74	CG34327	DRSC22380	6		inactive
75	CG34327	DRSC29197	1		inactive
76	CG42496 + Ppcdc	DRSC03886	10	10	inactive
77	Mlf	DRSC07472	5		inactive
78	Mlf	DRSC23495	6		inactive
79	GlyRS	DRSC10711	3		inactive
80	CG15528	DRSC15065	6		inactive
81	CTCF	DRSC11004	10		inactive
82	CTCF	DRSC28022	7		inactive
83	CG44085	DRSC23040	10		inactive
84	CG13135	DRSC02232	5		inactive
85	CG13135	DRSC27657	10		inactive
86	Remo	DRSC19710	10		inactive
87	brp	DRSC06245	8		inactive
88	brp	DRSC06246	6		inactive
89	brp	DRSC06801	7		inactive
90	brp	DRSC21893	7		inactive
91	brp	DRSC29170	5		inactive
92	brp	DRSC29721	9		inactive
93	Gp93	DRSC15827	3		inactive
94	Gp93	DRSC27798	8		inactive
95	sinu	DRSC09752	4		inactive
96	papi	DRSC00693	4		inactive
97	CG12121	DRSC17816	9		inactive
98	Mst36Fa	DRSC21564	13		inactive
99	Mst36Fa	DRSC26339	6		inactive
100	ATPsynG	DRSC02928	8	6	inactive
101	aurB	DRSC03548	1		inactive
102	aurB	DRSC23324	5		inactive
103	NetB	DRSC20262	6		inactive
104	NetB	DRSC26437	8		inactive
105	CG13949	DRSC00367	6		inactive
106	CG13949	DRSC25702	5		inactive
107	CG12679	DRSC20493	11		inactive
108	CG12679	DRSC29589	9		inactive
109	CG14646	DRSC12232	11		inactive
110	CG14646	DRSC21316	9		inactive
111	Gem4b + Gem4c	DRSC17294	9		inactive
112	CG32054	DRSC10684	2		inactive
113	CG32054	DRSC24449	9		inactive
114	CG30289	DRSC03870	10		inactive
115	PolD3	DRSC01961	2		inactive
116	PolD3	DRSC28401	6		inactive
117	E(spl)m5-HLH	DRSC16695	12		inactive
118	E(spl)m5-HLH	DRSC28232	10		inactive
119	Arv1	DRSC11491	9		inactive
120	CG15545	DRSC15083	17		inactive
121	CG15545	DRSC29523	6		inactive
122	CR14499 (retired record)	DRSC06470	7		inactive
123	CG16711	DRSC10220	8		inactive
124	CG16711	DRSC23733	15		inactive
125	CG17249	DRSC08517	7		inactive
126	Sf3b6	DRSC09972	10		inactive
127	Sf3b6	DRSC26462	9		inactive
128	blot	DRSC09485	10		inactive
129	blot	DRSC11328	7		inactive
130	blot	DRSC26157	3		inactive
131	Nf-YA	DRSC23126	14		inactive
132	CG11307	DRSC11648	23		inactive
133	CG11307	DRSC26602	17		inactive
134	Vps11	DRSC11909	5		inactive
135	Vps11	DRSC21579	9		inactive
136	CG5087	DRSC10479	6		inactive
137	Achl	DRSC06665	11		inactive
138	Achl	DRSC29366	4		inactive
139	CG15577	DRSC18065	5		inactive
140	CG8219	DRSC10971	2		inactive
141	CG8219	DRSC24577	9		inactive

A few values from the list.
Entry for blot [DRSC09485] in “activity call”: inactive
Result of sinu [DRSC09752] in “mitotic cells, replicate 1”: 4
CG15580 [DRSC12266], activity call → inactive
PolD3 [DRSC28401], mitotic cells, replicate 1 → 6
Under “mitotic cells, replicate 1”, CG13786 [DRSC27762] has 4
Result of brp [DRSC29721] under “activity call”: inactive
